Some of the results follow.
Columns and labels:
Experiment in all cases: log2 fold change, soluble protein after heating vs DMSO (PISA); higher = thermal stabilisation; K562 lysate, 10 uM; active = over 0.2 and 3.5 SD of the protein, either way, in both replicates (recomputed)
[1] = compound: C#Cc1cccc(Nc2ncnc3cc(OCCOC)c(OCCOC)cc23)c1 [erlotinib]
How it was run: (§1)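 To prepare the extract, K562 pellets were dounce-homogenised in PBS pH 7.4 with 1 mM MgCl2, giving crude material at 1 mg/mL protein. This was treated with 10 μM compound for 30 min, then heated in aliquots for 3 min over 48°C-58°C before pooling and addition of NP-40 to 0.5% at 4°C. Centrifugation at 21,000xg for 90 min left soluble protein in the supernatant, which TMTpro 16plex LC-MS/MS quantified with equalised channel sums. Results are log-two fold changes in thermal stability compared with solvent controls, from duplicates.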

Chains of the proteins cited; added tags and fusions are not shown. Lines headed by an entry give the natural chain unless they say otherwise; changes in a name come on top.
UniProt Q9UHX1: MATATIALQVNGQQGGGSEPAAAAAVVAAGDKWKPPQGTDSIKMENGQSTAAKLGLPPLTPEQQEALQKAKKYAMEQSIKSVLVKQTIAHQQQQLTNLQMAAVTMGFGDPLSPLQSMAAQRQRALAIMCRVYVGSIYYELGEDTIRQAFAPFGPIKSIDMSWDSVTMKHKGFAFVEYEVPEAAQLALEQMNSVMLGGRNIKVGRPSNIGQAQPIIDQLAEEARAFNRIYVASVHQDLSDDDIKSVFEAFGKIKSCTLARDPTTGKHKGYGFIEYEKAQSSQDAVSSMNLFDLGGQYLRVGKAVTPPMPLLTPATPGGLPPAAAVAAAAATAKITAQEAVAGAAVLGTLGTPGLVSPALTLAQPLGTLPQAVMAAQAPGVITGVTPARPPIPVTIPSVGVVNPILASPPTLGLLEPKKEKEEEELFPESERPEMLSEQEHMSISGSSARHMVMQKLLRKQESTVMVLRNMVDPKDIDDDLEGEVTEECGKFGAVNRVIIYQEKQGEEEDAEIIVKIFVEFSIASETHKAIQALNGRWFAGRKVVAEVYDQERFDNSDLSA
UniProt Q9NRG1: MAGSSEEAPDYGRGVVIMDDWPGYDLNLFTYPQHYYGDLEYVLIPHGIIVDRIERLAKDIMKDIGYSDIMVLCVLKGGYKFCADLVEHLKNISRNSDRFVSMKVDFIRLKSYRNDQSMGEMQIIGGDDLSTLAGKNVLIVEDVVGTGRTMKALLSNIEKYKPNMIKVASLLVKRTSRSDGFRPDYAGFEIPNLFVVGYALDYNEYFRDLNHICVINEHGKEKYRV
UniProt P28062: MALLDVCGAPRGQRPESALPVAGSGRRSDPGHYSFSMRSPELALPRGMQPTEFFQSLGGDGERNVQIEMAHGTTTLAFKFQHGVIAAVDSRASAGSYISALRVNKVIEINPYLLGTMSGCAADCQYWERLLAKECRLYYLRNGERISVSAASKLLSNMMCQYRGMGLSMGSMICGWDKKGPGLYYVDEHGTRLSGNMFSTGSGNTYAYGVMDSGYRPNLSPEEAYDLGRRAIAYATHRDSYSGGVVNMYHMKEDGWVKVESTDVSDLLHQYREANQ
UniProt P62333, whole entry, looked up: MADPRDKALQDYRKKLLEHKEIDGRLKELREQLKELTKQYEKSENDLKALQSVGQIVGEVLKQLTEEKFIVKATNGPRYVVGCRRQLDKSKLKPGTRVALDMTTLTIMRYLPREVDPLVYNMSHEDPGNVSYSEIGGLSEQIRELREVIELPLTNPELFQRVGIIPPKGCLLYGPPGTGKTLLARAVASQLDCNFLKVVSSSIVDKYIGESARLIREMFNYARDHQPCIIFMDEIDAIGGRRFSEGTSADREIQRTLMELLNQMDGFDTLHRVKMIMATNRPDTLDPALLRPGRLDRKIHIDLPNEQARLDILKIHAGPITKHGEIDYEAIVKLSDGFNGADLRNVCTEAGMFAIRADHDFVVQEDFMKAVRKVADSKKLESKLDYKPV
UniProt O75365, whole entry, looked up: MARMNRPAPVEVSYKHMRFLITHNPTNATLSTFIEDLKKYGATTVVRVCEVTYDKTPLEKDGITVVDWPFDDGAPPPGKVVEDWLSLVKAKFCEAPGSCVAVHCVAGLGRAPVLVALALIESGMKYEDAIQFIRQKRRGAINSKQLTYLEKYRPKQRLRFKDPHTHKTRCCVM
UniProt P60900, whole entry, looked up: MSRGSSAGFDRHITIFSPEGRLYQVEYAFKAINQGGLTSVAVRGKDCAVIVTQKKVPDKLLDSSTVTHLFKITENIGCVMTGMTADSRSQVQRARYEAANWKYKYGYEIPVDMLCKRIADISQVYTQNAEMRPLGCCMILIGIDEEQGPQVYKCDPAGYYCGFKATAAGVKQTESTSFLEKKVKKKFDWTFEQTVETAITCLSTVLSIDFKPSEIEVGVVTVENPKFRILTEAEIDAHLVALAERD
UniProt P60484: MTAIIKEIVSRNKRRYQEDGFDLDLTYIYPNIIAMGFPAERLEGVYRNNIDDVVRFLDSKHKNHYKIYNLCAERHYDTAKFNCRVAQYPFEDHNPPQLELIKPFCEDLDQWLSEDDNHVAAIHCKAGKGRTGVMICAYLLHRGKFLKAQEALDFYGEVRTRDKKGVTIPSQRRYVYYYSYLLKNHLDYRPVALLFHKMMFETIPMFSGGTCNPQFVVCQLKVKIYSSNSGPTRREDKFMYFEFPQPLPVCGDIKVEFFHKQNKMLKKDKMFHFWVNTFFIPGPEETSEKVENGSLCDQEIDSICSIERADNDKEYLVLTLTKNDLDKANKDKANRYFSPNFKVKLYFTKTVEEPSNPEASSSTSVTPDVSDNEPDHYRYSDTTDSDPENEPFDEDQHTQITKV
UniProt Q9BRX8: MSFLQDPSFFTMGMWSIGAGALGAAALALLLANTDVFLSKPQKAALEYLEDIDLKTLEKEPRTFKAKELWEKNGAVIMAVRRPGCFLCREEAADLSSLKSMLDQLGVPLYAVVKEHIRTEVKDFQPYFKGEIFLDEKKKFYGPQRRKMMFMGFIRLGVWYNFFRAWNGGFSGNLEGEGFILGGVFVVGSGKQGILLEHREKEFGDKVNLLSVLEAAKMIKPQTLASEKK
UniProt Q08623: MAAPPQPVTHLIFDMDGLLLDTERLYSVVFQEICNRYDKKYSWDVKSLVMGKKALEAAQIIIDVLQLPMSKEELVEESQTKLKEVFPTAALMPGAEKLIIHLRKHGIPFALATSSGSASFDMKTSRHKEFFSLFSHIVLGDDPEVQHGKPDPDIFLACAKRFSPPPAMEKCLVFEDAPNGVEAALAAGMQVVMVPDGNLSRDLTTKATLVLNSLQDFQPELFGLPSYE
UniProt Q5THK1: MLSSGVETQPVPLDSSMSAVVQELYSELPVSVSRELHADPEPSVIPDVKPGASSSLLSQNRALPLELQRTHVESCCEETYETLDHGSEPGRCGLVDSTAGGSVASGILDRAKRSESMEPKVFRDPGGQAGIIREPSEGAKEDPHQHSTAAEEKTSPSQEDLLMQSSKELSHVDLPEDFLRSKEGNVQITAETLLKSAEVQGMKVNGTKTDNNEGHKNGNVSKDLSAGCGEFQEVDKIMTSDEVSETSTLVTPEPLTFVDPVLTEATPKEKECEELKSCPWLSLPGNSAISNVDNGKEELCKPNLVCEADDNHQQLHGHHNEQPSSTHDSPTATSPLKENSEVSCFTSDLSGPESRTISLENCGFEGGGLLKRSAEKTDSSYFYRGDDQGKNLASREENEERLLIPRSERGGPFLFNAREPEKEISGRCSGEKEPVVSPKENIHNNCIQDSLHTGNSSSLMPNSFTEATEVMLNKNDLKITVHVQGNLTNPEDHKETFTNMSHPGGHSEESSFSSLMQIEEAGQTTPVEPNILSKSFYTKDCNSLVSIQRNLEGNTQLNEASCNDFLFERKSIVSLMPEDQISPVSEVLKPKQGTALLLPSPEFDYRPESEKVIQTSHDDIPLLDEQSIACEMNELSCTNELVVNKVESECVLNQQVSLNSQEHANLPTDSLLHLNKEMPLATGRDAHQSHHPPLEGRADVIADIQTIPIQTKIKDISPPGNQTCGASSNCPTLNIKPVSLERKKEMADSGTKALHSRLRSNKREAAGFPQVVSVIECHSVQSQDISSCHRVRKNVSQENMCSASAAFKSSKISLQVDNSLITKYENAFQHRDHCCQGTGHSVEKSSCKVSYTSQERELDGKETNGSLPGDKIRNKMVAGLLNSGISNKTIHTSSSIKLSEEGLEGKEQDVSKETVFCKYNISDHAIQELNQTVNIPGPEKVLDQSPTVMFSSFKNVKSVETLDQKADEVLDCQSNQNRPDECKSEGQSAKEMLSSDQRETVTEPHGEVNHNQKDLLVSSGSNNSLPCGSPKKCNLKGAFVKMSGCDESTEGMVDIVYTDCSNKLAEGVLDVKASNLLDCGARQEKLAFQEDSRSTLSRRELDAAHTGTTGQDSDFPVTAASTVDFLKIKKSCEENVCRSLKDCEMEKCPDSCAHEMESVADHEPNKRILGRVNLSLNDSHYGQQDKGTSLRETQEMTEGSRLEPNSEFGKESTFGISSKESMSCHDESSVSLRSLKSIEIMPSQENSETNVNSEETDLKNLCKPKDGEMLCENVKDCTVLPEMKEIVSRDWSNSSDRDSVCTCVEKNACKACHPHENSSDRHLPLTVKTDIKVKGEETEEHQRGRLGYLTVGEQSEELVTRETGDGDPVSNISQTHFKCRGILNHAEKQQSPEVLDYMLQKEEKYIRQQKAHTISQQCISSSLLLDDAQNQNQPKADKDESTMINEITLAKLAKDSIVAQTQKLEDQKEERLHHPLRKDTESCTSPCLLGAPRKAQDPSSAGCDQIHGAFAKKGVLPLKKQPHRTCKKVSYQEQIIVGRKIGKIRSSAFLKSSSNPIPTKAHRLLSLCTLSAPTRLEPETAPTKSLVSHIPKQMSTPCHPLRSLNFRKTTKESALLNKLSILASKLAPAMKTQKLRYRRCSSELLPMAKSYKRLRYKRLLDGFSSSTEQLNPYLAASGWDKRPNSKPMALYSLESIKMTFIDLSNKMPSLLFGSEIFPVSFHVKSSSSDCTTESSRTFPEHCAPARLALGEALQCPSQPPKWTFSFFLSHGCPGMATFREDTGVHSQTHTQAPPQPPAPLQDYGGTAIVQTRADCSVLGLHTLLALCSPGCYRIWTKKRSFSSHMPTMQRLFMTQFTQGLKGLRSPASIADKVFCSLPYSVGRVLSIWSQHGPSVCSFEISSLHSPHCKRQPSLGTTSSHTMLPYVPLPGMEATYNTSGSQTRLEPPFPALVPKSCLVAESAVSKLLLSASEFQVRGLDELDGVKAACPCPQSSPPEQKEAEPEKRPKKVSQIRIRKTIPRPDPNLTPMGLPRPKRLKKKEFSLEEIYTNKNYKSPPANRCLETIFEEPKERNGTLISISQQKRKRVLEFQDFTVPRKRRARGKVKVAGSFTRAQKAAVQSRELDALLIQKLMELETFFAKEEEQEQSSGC
UniProt Q15397: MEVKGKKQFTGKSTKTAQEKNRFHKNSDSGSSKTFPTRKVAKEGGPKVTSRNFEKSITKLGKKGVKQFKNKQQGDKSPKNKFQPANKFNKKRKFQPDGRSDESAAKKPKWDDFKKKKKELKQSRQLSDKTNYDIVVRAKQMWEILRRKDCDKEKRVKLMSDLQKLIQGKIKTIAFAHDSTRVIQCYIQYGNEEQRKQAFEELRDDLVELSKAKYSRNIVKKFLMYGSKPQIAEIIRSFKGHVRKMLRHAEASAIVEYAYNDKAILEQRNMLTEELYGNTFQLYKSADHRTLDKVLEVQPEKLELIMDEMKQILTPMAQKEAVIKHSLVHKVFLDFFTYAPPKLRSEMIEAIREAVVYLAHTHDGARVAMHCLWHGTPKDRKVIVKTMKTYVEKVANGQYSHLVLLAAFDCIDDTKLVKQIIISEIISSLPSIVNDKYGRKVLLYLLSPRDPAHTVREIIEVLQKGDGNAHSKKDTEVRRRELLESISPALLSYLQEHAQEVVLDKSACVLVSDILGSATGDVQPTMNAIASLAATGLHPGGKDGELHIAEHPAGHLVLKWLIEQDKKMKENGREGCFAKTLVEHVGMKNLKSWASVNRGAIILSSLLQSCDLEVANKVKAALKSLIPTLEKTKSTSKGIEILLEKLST
UniProt Q96PZ0: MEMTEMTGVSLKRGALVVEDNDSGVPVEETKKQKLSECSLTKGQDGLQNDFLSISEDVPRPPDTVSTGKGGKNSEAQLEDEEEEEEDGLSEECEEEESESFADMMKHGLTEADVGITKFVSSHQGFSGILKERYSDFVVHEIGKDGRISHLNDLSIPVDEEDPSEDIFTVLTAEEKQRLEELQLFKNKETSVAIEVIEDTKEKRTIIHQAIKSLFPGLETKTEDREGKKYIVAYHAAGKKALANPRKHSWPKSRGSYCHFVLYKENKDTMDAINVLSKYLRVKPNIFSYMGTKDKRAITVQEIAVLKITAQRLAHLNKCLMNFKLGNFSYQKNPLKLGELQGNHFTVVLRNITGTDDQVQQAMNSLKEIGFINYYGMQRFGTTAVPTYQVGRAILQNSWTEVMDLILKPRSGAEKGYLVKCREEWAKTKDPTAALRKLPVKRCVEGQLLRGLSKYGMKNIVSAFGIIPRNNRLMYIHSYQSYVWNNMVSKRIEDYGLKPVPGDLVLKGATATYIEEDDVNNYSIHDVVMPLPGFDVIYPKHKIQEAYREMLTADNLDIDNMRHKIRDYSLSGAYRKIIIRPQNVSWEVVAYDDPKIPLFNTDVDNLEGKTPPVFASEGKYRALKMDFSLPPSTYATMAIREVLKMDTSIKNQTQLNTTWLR

[2] = compound: C/C(=N\NC(=O)C1=CC(=CC=C1)S(=O)(=O)N2CCOCC2)/C3=C(C=CC(=C3)Cl)O
How it was run: as §1

[3] = compound: C1=CC(=CC=C1C2=NC3=C(N2)C=C(C=C3)C(=O)N)OC4=CC=C(C=C4)Cl
How it was run: as §1

[4] = compound: C1=CC2=C(C=CC(=C2)/C=C\3/C(=O)NC(=NCC4=CC=CS4)S3)N=C1
How it was run: as §1

[5] = compound: C1=CC2=NC=CN=C2C=C1/C=C/3\C(=O)NC(=O)S3
How it was run: as §1

[6] = compound: C1=CC=C2C(=C1)C3=NNC4=CC=CC(=C43)C2=O
How it was run: as §1

[7] = compound: C1CCN(C1)C(=O)NC2=CC=CC(=C2)NC3=NC=C(C(=N3)NCCC4=CN=CN4)Br
How it was run: as §1

[8] = compound: C1CN(CCC1(CC2=CC=C(C=C2)Cl)N)C3=NC=NC4=C3C=CN4
How it was run: as §1

[9] = compound: C=CC(=O)N1CCC[C@@H](n2nc(-c3ccc(Oc4ccccc4)cc3)c3c(N)ncnc32)C1 [ibrutinib]
How it was run: as §1

[10] = compound: CC(C)C1=C2N=C(C=C(N2N=C1)NCC3=CC=CC=C3)NCCCCCCN
How it was run: as §1

[11] = compound: CC1=C(C=C(C=C1)NC(=O)C2=CC(=CC=C2)C(C)(C)C#N)NC3=CC4=C(C=C3)N=CN(C4=O)C
How it was run: as §1

[12] = compound: C1=CC=C(C=C1)C2=NC(=C(N2)C3=CC=NC=C3)C4=CC(=C(C=C4)Cl)O
How it was run: as §1

[13] = compound: C1COCCN1CCN2C3=CC=CC=C3N=C2NC(=O)C4=CC(=CC=C4)[N+](=O)[O-] [IRAK-1-4 Inhibitor I]
How it was run: as §1

[14] = compound: CC(=O)c1cnc2ccc(-c3cc(Cl)c(O)c(Cl)c3)nc2c1N[C@H]1CC[C@H](CN(C)C)CC1
How it was run: as §1

[15] = compound: CC(C)(C)Cn1c(N)nc2ccc(-c3[nH]c(C(C)(C)C)nc3-c3ccc(F)cc3)nc21 [ralimetinib]
How it was run: as §1

[16] = compound: CC(C)(O)CC(=O)NCCn1ccc2ncnc(Nc3ccc(Oc4cccc(C(F)(F)F)c4)c(Cl)c3)c21
How it was run: as §1

[17] = compound: CC1=C(C(CC(=O)N1)C2=CC=C(C=C2)C(F)(F)F)C(=O)NC3=C(C=C4C(=C3)C=NN4)F
How it was run: as §1

[18] = compound: CC1=C(C=C(C=C1)NC(=O)C2=CC(=CC=C2)N(C)C)NC(=O)C3=CC=C(C=C3)O
How it was run: as §1

[19] = compound: CC1=CC=C(C=C1)SC2=C3C=C(SC3=CN=C2)C(=O)N
How it was run: as §1

[20] = compound: CC1=C(C2=C(C=C1)C(=O)C3=CC=CC=C3N2CCCN)C
How it was run: as §1

Measured: log2 fold change

PSMB2, A0A087WVV1
inactive: [1] 0.036 | [2] 0.467 | [3] -0.03 | [4] -0.1 | [5] 0.006 | [6] -0.136 | [7] -0.019 | [8] 0.125 | [9] 0.043 | [10] 0.004 | [11] -0.052

PUF60 isoform 2 (UniProt Q9UHX1)
inactive: [1] 0.102 | [2] -0.094 | [3] 0.083 | [4] -0.019 | [5] -0.064 | [12] -0.088 | [6] -0.005 | [7] -0.045 | [8] 0.033 | [13] -0.011 | [9] 0.153 | [14] -0.049 | [15] 0.045 | [16] 0.004 | [10] -0.174 | [17] -0.021 | [11] 0.032 | [18] -0.036 | [19] 0.013

PRTFDC1 (UniProt Q9NRG1)
inactive: [1] -0.015 | [2] -0.007 | [3] 0.014 | [4] -0.025 | [5] -0.017 | [12] 0.032 | [6] 0.037 | [7] 0.024 | [8] 0.007 | [13] 0.025 | [9] -0.019 | [14] -0.008 | [15] -0.003 | [16] 0.051 | [10] 0.005 | [17] -0.022 | [20] 0.002 | [11] 0.009 | [18] -0.008 | [19] -0.007

PSMB8 (UniProt P28062)
inactive: [1] 0.05 | [3] 0.036 | [5] 0.037 | [12] -0.028 | [7] -0.016 | [8] 0.04 | [13] -0.042 | [9] -0.028 | [14] -0.068 | [15] -0.043 | [16] -0.015 | [10] 0.11 | [20] -0.001 | [11] 0.191 | [18] 0.053 | [19] -0.004

PSMC6 (UniProt P62333)
inactive: [1] -0.012 | [2] 0.013 | [3] -0.001 | [4] -0.004 | [5] -0.026 | [12] 0.011 | [6] -0.029 | [7] 0.017 | [8] 0.008 | [13] -0.006 | [9] -0.013 | [14] 0.01 | [15] 0.004 | [16] 0.055 | [10] -0.002 | [17] -0.006 | [20] 0.014 | [11] -0.01 | [18] 0 | [19] 0.03

PSIP1 (UniProt V9GYT7)
inactive: [1] -0.044 | [3] 0.103 | [5] -0.044 | [12] 0.002 | [13] 0.061 | [9] 0.055 | [15] -0.05 | [16] -0.079 | [10] -0.039 | [11] 0.059 | [18] 0.063

2 neighbouring records out of the list so far, for reference:
PSMC6 (UniProt P62333)
inactive: [1] -0.012 | [2] 0.013 | [3] -0.001 | [4] -0.004 | [5] -0.026 | [12] 0.011 | [6] -0.029 | [7] 0.017 | [8] 0.008 | [13] -0.006 | [9] -0.013 | [14] 0.01 | [15] 0.004 | [16] 0.055 | [10] -0.002 | [17] -0.006 | [20] 0.014 | [11] -0.01 | [18] 0 | [19] 0.03

PSIP1 (UniProt V9GYT7)
inactive: [1] -0.044 | [3] 0.103 | [5] -0.044 | [12] 0.002 | [13] 0.061 | [9] 0.055 | [15] -0.05 | [16] -0.079 | [10] -0.039 | [11] 0.059 | [18] 0.063

Later entries.

PTPN11 isoform 1 (UniProt Q06124)
inactive: [1] -0.02 | [2] 0.018 | [3] 0.028 | [4] -0.014 | [5] -0.028 | [12] 0.005 | [6] -0.028 | [7] 0.001 | [8] 0.011 | [13] -0.012 | [9] 0.005 | [14] -0.009 | [15] -0.004 | [16] 0.038 | [10] 0.017 | [17] -0.007 | [20] 0.004 | [11] -0.035 | [18] -0.004 | [19] 0.01

PTP4A3 (UniProt O75365)
inactive: [1] -0.014 | [2] 0.069 | [3] -0.165 | [4] 0.008 | [6] 0.116 | [7] -0.074 | [8] 0.172 | [14] 0.018 | [10] 0.04 | [20] -0.109 | [11] -0.313 | [19] 0.101

PSMA6 (UniProt P60900)
inactive: [1] 0.013 | [2] 0.039 | [3] 0.008 | [4] -0.016 | [5] 0.014 | [12] -0.018 | [6] 0.016 | [7] 0.011 | [8] -0.017 | [13] 0.01 | [9] 0.02 | [14] -0.008 | [15] 0.011 | [16] -0.012 | [10] -0.004 | [17] -0.026 | [20] 0.031 | [11] 0.023 | [18] -0.023 | [19] -0.003

PTEN isoform 2 (UniProt P60484)
inactive: [1] 0.011 | [3] 0.01 | [5] -0.03 | [12] -0.026 | [7] -0.111 | [8] 0.102 | [13] 0.041 | [9] 0.05 | [14] 0.075 | [15] -0.049 | [16] 0.023 | [10] 0.074 | [17] 0.009 | [20] 0.094 | [11] 0.087 | [18] -0.018 | [19] -0.029

PRXL2A (UniProt Q9BRX8)
inactive: [1] 0.05 | [3] 0.077 | [5] 0.087 | [12] -0.033 | [13] 0.145 | [9] -0.065 | [15] 0.013 | [16] -0.234 | [10] 0.031 | [17] -0.077 | [20] -0.006 | [18] -0.097

PUDP isoform 4 (UniProt Q08623)
inactive: [1] 0 | [2] -0.024 | [3] 0.02 | [4] -0.046 | [5] -0.031 | [12] 0.004 | [6] 0.047 | [7] 0.009 | [8] 0.054 | [13] 0.005 | [9] 0.053 | [14] 0.003 | [15] -0.007 | [16] 0.012 | [10] -0.001 | [17] -0.044 | [20] -0.031 | [11] 0.042 | [18] 0.01 | [19] 0.005

PRR14L (UniProt Q5THK1)
inactive: [1] 0.112 | [2] -0.175 | [3] -0.044 | [4] 0.013 | [5] 0.003 | [12] -0.031 | [6] 0.015 | [7] 0.078 | [8] -0.025 | [13] 0.075 | [9] 0.028 | [15] -0.099 | [16] -0.02 | [10] 0.053 | [17] -0.002 | [20] -0.027 | [11] 0.061 | [18] -0.038

PUM3 (UniProt Q15397)
inactive: [1] 0.012 | [2] -0.013 | [3] 0.012 | [4] 0.049 | [5] -0.021 | [12] 0 | [6] 0.013 | [7] 0.074 | [8] 0.05 | [13] 0.071 | [9] 0.023 | [14] -0.003 | [15] 0.065 | [16] -0.032 | [10] -0.057 | [17] 0.03 | [20] -0.043 | [11] -0.031 | [18] -0.131 | [19] 0.039

PUS7 isoform 2 (UniProt Q96PZ0)
inactive: [1] -0.01 | [2] -0.032 | [3] 0.017 | [4] -0.002 | [5] -0.022 | [12] 0.015 | [6] 0.001 | [7] -0.028 | [8] 0.021 | [13] 0.007 | [9] 0.015 | [14] -0.011 | [15] 0 | [16] -0.011 | [10] 0.003 | [17] -0.017 | [20] -0.03 | [11] 0.011 | [18] -0.005 | [19] -0.003
